Source: patent publication EP4035684A1 (AF Chemical LLC, priority 2019, dated 2022)

Experiment: general procedure: peptide synthesis; EDC/ODHBt/NMM; DIC/HOBt
Conditions: conjugation step

Substance | conjugation yield [%] | crude HPLC purity (HPLC) [%]
PEPTIDE1{[ac].[Hyp].S.S.[Chg].Q.S.S.P.[IlludinM-O]}$$$$V2.0 | 33 | 70
PEPTIDE1{[ac].[Hyp].S.S.[Chg].Q.S.S.P.[AF-propyl-O]}$$$$V2.0 | 69 | –
PEPTIDE1{[ac].[Hyp].S.S.[Chg].Q.S.S.P.[TBS-IlludinS-O]}$$$$V2.0 | 47 | –
PEPTIDE1{[Mu].H.S.S.K.L.Q.L.[AF-propyl-NH]}$$$$V2.0 | 21 | –

Strings that start with PEPTIDE1 are HELM notation: dots part the residues, brackets hold end groups and non-standard residues.
